Laboratory results from patent publication US20220251193A1 (RAMOT AT TEL AVIV UNIVERSITY, published 2022).
Changes are numbered by the printed parent chain. These are yes or no findings as the source states them, for the method shown. Some entries that bind do so weakly or less than the wild type.

Chains of the proteins cited; added tags and fusions are not shown. Residues count along the entry.
UniProt P02769, residues 25-607: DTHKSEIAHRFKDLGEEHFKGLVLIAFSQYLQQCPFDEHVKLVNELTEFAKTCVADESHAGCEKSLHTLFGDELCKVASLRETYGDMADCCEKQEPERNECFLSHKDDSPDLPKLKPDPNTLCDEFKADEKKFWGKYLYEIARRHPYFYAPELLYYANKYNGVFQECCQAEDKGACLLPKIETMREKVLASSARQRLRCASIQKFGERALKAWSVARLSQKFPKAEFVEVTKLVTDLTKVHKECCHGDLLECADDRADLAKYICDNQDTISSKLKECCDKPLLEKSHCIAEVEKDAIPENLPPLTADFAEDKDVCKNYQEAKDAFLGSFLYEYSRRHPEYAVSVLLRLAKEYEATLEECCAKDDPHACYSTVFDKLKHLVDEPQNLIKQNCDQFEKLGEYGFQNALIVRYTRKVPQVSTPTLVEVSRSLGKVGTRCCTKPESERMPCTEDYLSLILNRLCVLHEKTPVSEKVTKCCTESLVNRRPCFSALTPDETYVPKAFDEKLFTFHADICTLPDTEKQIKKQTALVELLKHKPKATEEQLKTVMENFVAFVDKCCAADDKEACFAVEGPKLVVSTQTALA

B1: Fab L4B8 (Fab, V domains shown)
VH: EVQLLESGGGLVQPGGSLRLPCAASGFTVGLYNINWVRQAPGKGLAWVSTISGSGLNTYYSDPVKGRFTISRDNSKNTLYLQMNSLRAEDTAVYYCARDEDTYAFNWGQGTLVTVSS
VL: DIVLTQSPGTLSLSPGERATLSCRASQSVSSSYLAWYQQKPGQAPRLLIYGASTRAPGIPDRFSGSGSGTDFTLTISRLEPEDFAVYYCHQRGSGDTFGPGTKVEIK
notes: C-terminal His tag on the Fd fragment
B2: Fab L4E6 (Fab, V domains shown)
VH: EVQLLESGGGLVQPGGSLRLSCAASGFTFSNFVMNWVRQAPGKGLEWVSRINTDGTSTNYADSVTGRFTISRDNSKNTLYLQMNSLRAEDTAVYYCARDYPLRRLMYYYYGMDVWGQGTLVTVSS
VL: DIVLTQSPGTLSLSPGERATLSCRASQTISSNLAWYQQKPGQAPRLLIYGASSRATGIPDRFSGSGSGTDFTLTISRLEPEDFAVYYCQQYSWSPRVYSFGQGTKLEIK
notes: as for B1
B3: Fab 3A3 (Fab, V domains shown)
VH: EVQLLESGGGLVQPGGSLRLSCAASGFTFTSYDMDWVRQAPGKGLEWVSAINSNGDSTYYPDTVKDRFTISRDNSKNTLYLQMNSLRAEDTAVYYCARAQGQWLFHNWFDHWGQGTLVTVSS
VL: QSVLTQPPSASGTPGQRVTISCSGGNSNIGDHYVSWYQQLPGTAPKLLIYGDTHRPSGVPDRFSGSKSGTSASLAISGLRSEDEADYYCGTWDSSLSAGVFGGGTKVTVL
B4: Fab 3C7 (Fab, V domains shown)
V domain 1: EVQLLESGGGLVQPGGSLRLSCAASGFTVSSYWMHWVRQAPGKGLEWVSSTTGSGGSTYYADSVKGRFTISRDNSKNTLYLQMNSLRAEDTAVYYCARGTSGWYGIDYWGQGTLVTVSS
V domain 2: QSVLTQPPSASGTPGQRVTISCSGSSSNIGNNHVSWYQQLPGTAPKLLIYCNNNRPSGVPDRFSGSKSGTSASLAISGLRSEDEADYYCQVWDSSRDQGVFGGGTQVTVL
B5: Fab 3G3 (Fab, V domains shown)
V domain 1: EVQLLESGGGLVQPGGSLRLSCAASGFTFNDYWMHWVRQAPGKGLEWVSALTGGGDTPWYPGSVKGRFTISRDNSKNTLYLQMNSLRAEDTAVYYCARVKVVPRSRETDAFDVWGQGTLVTVSS
V domain 2: QSVLTQPPSASGTPGQRVTISCTGGPPNIGNNAVFWYQQLPGKAPKLLIYELTKRPSGVPDRFSGSKSGTSASLAISGLRSEDEADYYCSSYTRVSTPVFGGGTQVTVL
B6: Fab 3H8 (Fab, V domains shown)
VH: EVQLLESGGGLVQPGGSLRLSCAASGFTFSSYGMHWVRQAPGKGLEWVSYISSSGSHTSFADSVKGRFTISRDNSKNTLYLQMNSLRAEDTAVYYCARDGLFGIDYWGQGTLVTVSS
VL: DIVLTQSPGTLSLSPGERATLSCRASQSISSNLAWYQQKPGQAPRLLIYGASSRATGIPDRFSGSGSGTDFTLTISRLEPEDFAVYYCQQRDWPPFTFGQGTKLEIK
B7: Fab L4D10 (Fab, V domains shown)
V domain 1: EVQLLESGGGLVQPGGSLRLSCAASGFTFRSYGMHWVRQAPGKGLEWVSSISPTTNYRSYADSLRGRFTISRDNSKNTLYLQMNSLRAEDTAVYYCARGHRDRSGSPVGYLDYWGQGTLVTVSS
V domain 2: QSVLTQPPSASGTPGQRVTISCTGSSSNIGRNSVNWYQQLPGTAPKLLIYSNHHRPSGVPDRFSGSKSGTSASLAISGLRSEDEADYYCSSYAGSNKYVFGTGTQVTVL
B8: Fab L4G11 (Fab, V domains shown)
VH: EVQLLESGGGLVQPGGSLRLSCAASGFTVRNNYMSWVRQAPGKGLEWVSGLSGFGRGAHYSDSVKGRFTISRDNSKNTLYLQMNSLRAEDTAVYYCARGAVGYLQWFPDVWGQGTLVTVSS
VL: QSVLTQPPSASGTPGQRVTISCSGGRSNIGSNTVNWYQQLPGKAPKLLIYGNSNRPSGVPDRFSGSKSGTSASLAISGLRSEDEADYYCCSHARGDTLIFGVGTKLTVL
B9: Fab 3B7CorrC3 (Fab, V domains shown)
VH: EVQLLESGGGLVQPGGSLRLSCAASGFTFTDYYMSWVRQAPGKRLEWVSAISDSGGMTYYADSVRGRFTISRDNSKNTLYLQMNSLKAEDTAVYYCAREPLGDHGDLRPDFDYWGQGTLVTVSS
VL: QSVLTQPPSASGTPGQRVTISCSGGSSNIGSQTVLWYQQLPGTAPKLLIYDNNKRPSGVPDRFSGSKSGTSASLAISGLRSEDEADYYCASWDDSLSGGVFGGGTKVTVL
B10: Fab 3A9CorrC6 (Fab, V domains shown)
VH: EVQLLESGGGLVQPGGSLRLSCAASGFTFSPYAMSWVRQAPGKGLEWVSVIFTSGTTNYADSVKGRFTISRDNSKNTLYLQMNSLRAEDTAVYYCARELRRPGDGVPAATSDYWGQGTLVTVSS
VL: QSVLTQPPSASGTPGQRVTISCSGSTSNIGRNYVCWYQQLPGKAPKLLIYANNNRPSGVPDRFSGSKSGTSASLAISGLRSEDEADYYCSSYTSSSTLVFGGGTQLTVL
B11: Fab 3G1CorrC10 (Fab, V domains shown)
VH: EVQLLESGGGLVQPGGSLRLSCAASGFTFSNHAMSWVRQAPGKGLEWVSSISASGGSTYYADSVKGRFTISRDNSKNTLYLQMNSLRAEDTAVYYCARAESGYQLDYWGQGTLVTVSS
VL: DIVLTQSPGTLSLSPGERATLSCRASQSVSSSYLAWYQQKPGQAPRLLIYGVSNRATGIPDRFSGSGSGTDFTLTISRLEPEDFAVYYCQQSYSTPYTFGPGTKLDIK
B12: Fab 3E2CorrG9 (Fab, V domains shown)
VH: EVQLLESGGGLVQPGGSLRLSCAASGFTFGDFAMSWVRQAPGKGLEWVSSISSNSSYIYYADSVKGRFTISRDNSKNTLYLQMNSLRAEDTAVYYCARGRVYGDFGKFDSWGQGTLVTVSS
VL: DIVLTQSPGTLSLSPGERATLSCTASQSVGRYLAWYQQKPGQAPRLLIYGASSRATGIPDRFSGSGSGTDFTLTISRLEPEDFAVYYCQQYGSSLTFGGGTKLDIK
B13: Fab L4D8 (Fab, V domains shown)
VH: EVQLLESGGGLVQPGGSLRLSCAASGFTFTDYYMSWVRQAPGKGLEWVSSISSSSSYIYYADSVKGRFTISRDNSKNTLYLQMNSLRAEDTAVYYCARGGDYDAFDIWGQGTLVTVSS
VL: QSVLTQPPSASGTPGQRVTISCSGRSSNVGSNSVNWYQQLPGTAPKLLIYTNDQRPSGVSDRFSGSKSGTSASLAISGLLSEDEADYYCSSYTSSSTRVFGTGTKLTVL
B14: Fab L4F8 (Fab, V domains shown)
VH: EVQLLESGGGLVQPGGSLRLSCAASGFTFTDYYMNWVRQAPGKGLEWVSRITNDGMSTAYADFVKGRFTISRDNSKNTLYLQMNSLRAEDTAVYYCARSPLEEGRITFRYWYFDLWGQGTLVTVSS
VL: B6 VL with I29V, G50D, S53N, R91G, W93S, P94Y, F96Y

What was measured:
BSA (bovine) = BSA (bovine) (UniProt P02769); test: ELISA on coated control antigen, Fab in 2 fold dilutions from 1 µM, detection with HRP goat anti human H+L
[1] = target: T1, Sema3a protein (human (by the filing's definition of Sema3A at paragraph 83; the examples state no species)) (UniProt Q14563); test: soluble Fabs evaluated by ELISA on Sema3a
T1 sequence: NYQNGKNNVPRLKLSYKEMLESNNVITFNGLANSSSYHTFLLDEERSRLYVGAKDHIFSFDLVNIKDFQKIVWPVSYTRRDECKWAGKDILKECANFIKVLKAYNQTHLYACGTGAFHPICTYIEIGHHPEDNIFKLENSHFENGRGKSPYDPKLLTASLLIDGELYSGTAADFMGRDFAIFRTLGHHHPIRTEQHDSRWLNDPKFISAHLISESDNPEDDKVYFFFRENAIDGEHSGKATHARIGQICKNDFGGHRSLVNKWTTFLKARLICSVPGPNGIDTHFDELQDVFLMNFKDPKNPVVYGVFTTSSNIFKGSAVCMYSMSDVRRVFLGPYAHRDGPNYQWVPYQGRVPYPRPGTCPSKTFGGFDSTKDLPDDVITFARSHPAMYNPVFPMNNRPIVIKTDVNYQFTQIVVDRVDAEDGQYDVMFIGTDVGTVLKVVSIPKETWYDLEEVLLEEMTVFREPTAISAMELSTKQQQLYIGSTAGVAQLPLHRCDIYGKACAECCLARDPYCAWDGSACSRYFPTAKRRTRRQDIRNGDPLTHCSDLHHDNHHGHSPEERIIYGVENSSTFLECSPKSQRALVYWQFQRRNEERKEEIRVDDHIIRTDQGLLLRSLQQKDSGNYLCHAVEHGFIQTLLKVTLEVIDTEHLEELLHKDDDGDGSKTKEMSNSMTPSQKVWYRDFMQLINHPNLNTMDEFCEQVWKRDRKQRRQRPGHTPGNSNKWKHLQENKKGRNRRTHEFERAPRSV

Row | Binder | binding (BSA (bovine)) | binding [1]
1 | B1 | no binding (tested: 1000 nM) | binds
2 | B2 | no binding (tested: 1000 nM) | binds
3 | B3 |  | binds
4 | B4 |  | binds
5 | B5 |  | binds
6 | B6 |  | binds
7 | B7 |  | binds
8 | B8 |  | binds
9 | B9 |  | binds
10 | B10 |  | binds
11 | B11 |  | binds
12 | B12 |  | binds
13 | B13 |  | binds
14 | B14 |  | binds
